Consider 26 substances from patent EP0625164 (dated 1993).

The data set can be described thus: general procedure: Boc solid-phase peptide synthesis; oxime resin (substitution level = 0.96 mmol/g); HBTU / N-methylmorpholine. The following applies: for isolated yield: overall.
The mark [1] stands for this setting: late stage modification step, fluoride salt.
[2] abbreviates: whole synthesis, scale 0.498 mmol, TFA salt.
The mark [3] stands for this setting: whole synthesis, scale 0.336 mmol, TFA salt.
[4] abbreviates: late stage modification step, acetate salt.
Setting [5] is: whole synthesis, scale 0.43 mmol, TFA salt.
Where [6] appears, read: whole synthesis, scale 0.586 mmol, TFA salt.
Where [7] appears, read: late stage modification step, TFA salt.
Setting [8] is: whole synthesis, scale 0.101 mmol, TFA salt.
[9] abbreviates: whole synthesis, scale 0.244 mmol, TFA salt.
[10] abbreviates: whole synthesis, scale 0.611 mmol, TFA salt.
Setting [11] is: whole synthesis, scale 0.115 mmol, TFA salt.
Where [12] appears, read: whole synthesis, scale 0.596 mmol, TFA salt.

Some peptides are written in HELM: one residue between dots, names in brackets for other building blocks, links after the first $.

As for “Boc-D-Val-NMeArg(Tos)-Gly-Asp (OcHex)-MAMB-Ox”, the step yield (coupling step, TFA salt) turned out to be 86%.
Consider “PEPTIDE1{[D-Abu].[di-NMeOrn].G.D.[Mamb]}$PEPTIDE1,PEPTIDE1,1:R1-5:R2$$$V2.0”, for which the step yield under setting [1] stood at 86% and the step yield (purification step, TFA salt) was 49.3%. For the same substance, where the note is “whole synthesis, TFA salt”, the isolated yield was found to be 14.2%. Besides, under setting [2], the crude mass came to 150 mg. Further, the crude yield under setting [2] is listed as 39.3%.
In the case of “PEPTIDE1{[Gly].[NMeArg].[Gly].[Asp].[Mamb]}$PEPTIDE1,PEPTIDE1,5:R2-1:R1$$$V2.0”, the step yield (purification step, TFA salt) came out at 21% recovery. The isolated yield result (whole synthesis, TFA salt) is “overall yield 16.3%”. Also, under setting [3], the crude mass was determined as 218 mg and the crude yield is 84%.
Consider “PEPTIDE1{[NMeGly].[NMeArg].[Gly].[Asp].[Mamb]}$PEPTIDE1,PEPTIDE1,5:R2-1:R1$$$V2.0”, for which the step yield under setting [4] is listed as 97%. Under “purification step, TFA salt”, the step yield is 14.7%. Moreover, where the note is “whole synthesis, TFA salt”, the isolated yield is given as 7.9%. For the same substance, under setting [5], the crude mass was 205 mg and the crude yield is given as 60%.
The corresponding values for “PEPTIDE1{[Pro].[NMeArg].[Gly].[Asp].[Mamb]}$PEPTIDE1,PEPTIDE1,5:R2-1:R1$$$V2.0” are 79%, 5.8%, 2.1%, 170 mg and 48.8%.
On to “PEPTIDE1{[bAla].[NMeArg].[Gly].[Asp].[Mamb]}$PEPTIDE1,PEPTIDE1,5:R2-1:R1$$$V2.0”, for which the step yield (purification step, TFA salt) came out at 53.2%. For the same substance, under “whole synthesis, TFA salt”, the isolated yield was determined as 32.5%. Besides, the crude mass under setting [6] was 264 mg.
Consider “PEPTIDE1{[dAbu].[NMeArg].[Gly].[Asp].[Mamb]}$PEPTIDE1,PEPTIDE1,5:R2-1:R1$$$V2.0”, for which the step yield under setting [7] was 68.7%. Moreover, the step yield (purification step, TFA salt) turned out to be 31% recovery. In addition, where the note is “whole synthesis, TFA salt”, the isolated yield entry is reported as “overall yield 12.4%”. For the same substance, under setting [8], the crude mass worked out at 51 mg and the crude yield is 63%.
In the case of “PEPTIDE1{[dAla].[NMeArg].[Gly].[Asp].[Mamb]}$PEPTIDE1,PEPTIDE1,5:R2-1:R1$$$V2.0”, under “whole synthesis, TFA salt”, the difficulty met entry is given as “Recoupling of the Boc-N-MeArg(Tos) residue was found to be necessary”. Under setting [9], the crude mass is 117 mg and the crude yield was 61%.
As to “PEPTIDE1{[dI].[NMeArg].G.D.[Mamb]}$PEPTIDE1,PEPTIDE1,1:R1-5:R2$$$V2.0”, the step yield under setting [1] was found to be 90%. For the same substance, the step yield (purification step, TFA salt) is on record as 22.5%. In addition, the isolated yield (whole synthesis, TFA salt) amounted to 12.1%. Also, under setting [10], the crude mass turned out to be 349 mg and the crude yield is 69.2%.
With “PEPTIDE1{[dLeu].[NMeArg].[Gly].[Asp].[Mamb]}$PEPTIDE1,PEPTIDE1,5:R2-1:R1$$$V2.0”, under setting [4], the step yield was found to be 63%. Further, the step yield (purification step, TFA salt) stood at 29%. Where the note is “whole synthesis, TFA salt”, the isolated yield came out at 16.5%. Under setting [11], the crude mass turned out to be 92.4 mg and the crude yield was determined as 98%.
In the case of “PEPTIDE1{[dLys].[NMeArg].[Gly].[Asp].[Mamb]}$PEPTIDE1,PEPTIDE1,5:R2-1:R1$$$V2.0”, the step yield by setting is: (late stage modification step, difluoride salt) 79.1%; (purification step, TFA salt) 33.6%. The isolated yield (whole synthesis, TFA salt) was found to be 12.1%. Under setting [6], the crude mass amounted to 349 mg. For the same substance, the crude yield under setting [6] amounted to 58.9%.
Turning to “PEPTIDE1{[dNle].[NMeArg].[Gly].[Asp].[Mamb]}$PEPTIDE1,PEPTIDE1,5:R2-1:R1$$$V2.0”, the step yield under setting [1] came out at 95.4%. Further, the step yield (purification step, TFA salt) worked out at 44%. Further, the isolated yield (whole synthesis, TFA salt) worked out at 22.9%. Under setting [6], the crude mass turned out to be 305 mg and the crude yield worked out at 63.3%.
In the case of “PEPTIDE1{[dPhe].[NMeArg].[Gly].[Asp].[Mamb]}$PEPTIDE1,PEPTIDE1,5:R2-1:R1$$$V2.0”, for the setting “purification step, TFA salt”, the step yield is listed as 35%. The isolated yield (whole synthesis, TFA salt) is given as 8.7%. Further, under setting [10], the crude mass turned out to be 140 mg and the crude yield was 26.7%.
For the substance “PEPTIDE1{[dPhg].[NMeArg].[Gly].[Asp].[Mamb]}$PEPTIDE1,PEPTIDE1,5:R2-1:R1$$$V2.0”, under setting [1], the step yield is listed as 98.9%. Also, where the note is “purification step, TFA salt”, the step yield is listed as 24.2%. Also, the isolated yield (whole synthesis, TFA salt) amounted to 11.9%. Besides, under setting [10], the crude mass is 296 mg and the crude yield is on record as 57.4%.
On to “PEPTIDE1{[dPro].[NMeArg].[Gly].[Asp].[Mamb]}$PEPTIDE1,PEPTIDE1,5:R2-1:R1$$$V2.0”, for which the step yield under setting [4] is given as 93.3%. Further, the step yield (purification step, TFA salt) was found to be 6.4%. The isolated yield (whole synthesis, TFA salt) is listed as 3.3%. Under setting [5], the crude mass came to 211 mg and the crude yield is reported as 60.8%.
“PEPTIDE1{[dTyr].[NMeArg].[Gly].[Asp].[Mamb]}$PEPTIDE1,PEPTIDE1,5:R2-1:R1$$$V2.0”: for the setting “purification step, TFA salt”, the step yield stood at 11.3%. Where the note is “whole synthesis, TFA salt”, the isolated yield stood at 10.8%. Besides, the crude mass (whole synthesis, scale 0.313 mmol, TFA salt) is given as 342 mg.
As for “PEPTIDE1{[dV].[NMeArg].G.D.[2AmPhAc]}$PEPTIDE1,PEPTIDE1,1:R1-5:R2$$$V2.0”, the step yield (coupling step, TFA salt) is 95% and the step yield under setting [7] came out at 75%. For the setting “cyclisation step, TFA salt”, the cyclisation yield was 68%.
“PEPTIDE1{[dV].[NMeArg].G.D.[2Amb]}$PEPTIDE1,PEPTIDE1,1:R1-5:R2$$$V2.0”: the step yield under setting [7] was 12%.
Same read-out and setting: as for “PEPTIDE1{[dV].[NMeArg].G.D.[3APhAc]}$PEPTIDE1,PEPTIDE1,1:R1-5:R2$$$V2.0”, the figure is 50%.
For the substance “PEPTIDE1{[dVal].[NMeArg].[Gly].[Asp].[NMeMamb]}$PEPTIDE1,PEPTIDE1,5:R2-1:R1$$$V2.0”, the step yield came out at 93.5% under setting [1] and 34.2% (purification step, TFA salt). Moreover, the isolated yield (whole synthesis, TFA salt) was determined as 29.9%. For the same substance, where the note is “whole synthesis, scale 0.456 mmol, TFA salt”, the crude mass is 406 mg.
Regarding “PEPTIDE1{[dVal].[NMeArg].[Gly].[NMeAsp].[Mamb]}$PEPTIDE1,PEPTIDE1,5:R2-1:R1$$$V2.0”, the step yield is, setting by setting: under setting [1], 96.4%; (purification step, TFA salt) 28.2%. For the same substance, the isolated yield (whole synthesis, TFA salt) is 10.9%. The crude mass under setting [10] stood at 232 mg. In addition, under setting [10], the crude yield is recorded as 46.1%.
Take “PEPTIDE1{[dVal].[NMeArg].[Gly].[dAsp].[Mamb]}$PEPTIDE1,PEPTIDE1,5:R2-1:R1$$$V2.0”: the step yield (purification step, TFA salt) turned out to be 44.4%. In addition, the isolated yield (whole synthesis, TFA salt) turned out to be 20.7%. Besides, under setting [10], the crude mass is on record as 257 mg and the crude yield worked out at 51.9%.
Regarding “PEPTIDE1{[dVal].[NMeArg].[bAla].[Asp].[Mamb]}$PEPTIDE1,PEPTIDE1,5:R2-1:R1$$$V2.0”, the step yield under setting [1] stood at 93.2%. Moreover, the step yield (purification step, TFA salt) worked out at 43.6%. Also, where the note is “whole synthesis, TFA salt”, the isolated yield came out at 16.5%. Under setting [6], the crude mass is 227 mg and the crude yield is on record as 46.9%.
For “PEPTIDE1{[dVal].[dNMeArg].[Gly].[Asp].[Mamb]}$PEPTIDE1,PEPTIDE1,5:R2-1:R1$$$V2.0”, the step yield (purification step, TFA salt) is on record as 14.8%. The isolated yield (whole synthesis, TFA salt) is on record as 5.3%. In addition, under setting [12], the crude mass was determined as 186 mg and the crude yield amounted to 38.6%.
On to “TFA·D-Val-NmeArg(Tos)-Gly-Asp (OcHex) -MAMB-Ox”, for which, under setting [7], the step yield was 98%.
On the same count and under the same terms, as for “cycle-(D-Val-NMeArg-Gly-Asp-3-aminomethyl-4-chlorobenzoic acid)”, the figure is 39%.
